# From ChEMBL document CHEMBL1131230 (J Med Chem, 1998)
# Target: GABA-A receptor; anion channel
# Assay: Inhibition of [35S]TBPS binding to GABA-A receptor in rat cerebral cortex.
# Type: tissue-based
# In short: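 Unwashed cortical membranes from male Sprague-Dawley rats (180-200 g), homogenized in 50 mM Tris-citrate pH 7.4 with […], centrifuged at 20000g and resuspended in buffer. Final 1 nM [35S]TBPS with 0.20-0.25 mg protein and NaCl, 90 min at 25 °C, then GF/B filtration and scintillation counting. Nonspecific binding defined with 100 µM picrotoxin.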
compound,measurement,value
CC(=O)[C@H]1CC[C@H]2[C@@H]3CC[C@H]4C[C@H](O)CC[C@]4(C)[C@H]3C(=O)C[C@]12C [ALFAXALONE],IC50,300 nM
